This passage reports binding results from publication PMC4865133.

In experiment [1] the target is T1, MORC6 fused with GAL4-BD (Arabidopsis) (UniProt Q56Y74).
T1 sequence: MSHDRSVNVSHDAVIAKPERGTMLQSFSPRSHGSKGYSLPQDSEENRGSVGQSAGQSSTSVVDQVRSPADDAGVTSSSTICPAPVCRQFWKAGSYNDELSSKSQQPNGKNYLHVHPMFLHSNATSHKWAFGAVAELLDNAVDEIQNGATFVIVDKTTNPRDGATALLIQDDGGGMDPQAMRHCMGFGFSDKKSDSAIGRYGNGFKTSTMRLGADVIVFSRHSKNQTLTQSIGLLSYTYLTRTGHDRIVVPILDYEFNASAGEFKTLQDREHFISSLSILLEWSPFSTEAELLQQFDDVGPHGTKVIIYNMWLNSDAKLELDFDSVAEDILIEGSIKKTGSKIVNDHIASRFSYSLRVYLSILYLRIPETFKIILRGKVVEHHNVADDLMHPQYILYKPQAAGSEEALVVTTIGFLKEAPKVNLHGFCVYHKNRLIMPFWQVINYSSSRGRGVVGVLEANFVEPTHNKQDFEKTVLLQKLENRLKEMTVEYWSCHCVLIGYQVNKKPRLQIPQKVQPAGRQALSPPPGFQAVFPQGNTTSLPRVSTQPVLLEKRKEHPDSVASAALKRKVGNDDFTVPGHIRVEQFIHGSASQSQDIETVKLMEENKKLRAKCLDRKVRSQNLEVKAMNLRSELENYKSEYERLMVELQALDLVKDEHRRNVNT
In words: two-hybrid; GAL4-AD fusions (pGADT7) and GAL4-BD fusions (pGBKT7); mating of Y187 and AH109, confirmed by co-transformation into AH109; growth on SD-Trp-Leu-His with 5 mM 3-AT.

In experiment [2] the target is T2, MORC6 fused with N-LUC (Arabidopsis) (UniProt Q56Y74).
T2 sequence: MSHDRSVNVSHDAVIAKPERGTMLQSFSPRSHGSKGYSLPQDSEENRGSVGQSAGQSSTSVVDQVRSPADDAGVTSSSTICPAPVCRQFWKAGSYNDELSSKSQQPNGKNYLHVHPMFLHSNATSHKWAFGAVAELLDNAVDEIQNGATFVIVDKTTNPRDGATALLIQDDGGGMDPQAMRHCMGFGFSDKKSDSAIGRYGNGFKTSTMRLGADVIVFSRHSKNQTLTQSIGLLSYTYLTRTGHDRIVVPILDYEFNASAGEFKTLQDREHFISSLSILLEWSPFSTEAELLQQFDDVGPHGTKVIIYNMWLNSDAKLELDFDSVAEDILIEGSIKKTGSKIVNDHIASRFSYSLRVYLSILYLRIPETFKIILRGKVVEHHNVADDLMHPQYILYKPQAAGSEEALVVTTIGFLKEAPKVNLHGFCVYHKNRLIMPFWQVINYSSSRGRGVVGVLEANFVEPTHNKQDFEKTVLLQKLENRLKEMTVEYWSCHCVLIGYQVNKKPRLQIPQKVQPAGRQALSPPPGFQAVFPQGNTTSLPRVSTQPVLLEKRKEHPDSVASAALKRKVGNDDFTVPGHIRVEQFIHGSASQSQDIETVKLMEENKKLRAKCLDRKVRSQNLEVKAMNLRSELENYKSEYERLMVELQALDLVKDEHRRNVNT
In words: split reporter; split luciferase complementation; N-LUC and C-LUC fusions infiltrated with Agrobacterium into N. benthamiana leaves; luminescence imaged after 48 h.

In experiment [3] the target is T3, SUVH9 fused with N-LUC (Arabidopsis) (UniProt Q9T0G7).
T3 sequence: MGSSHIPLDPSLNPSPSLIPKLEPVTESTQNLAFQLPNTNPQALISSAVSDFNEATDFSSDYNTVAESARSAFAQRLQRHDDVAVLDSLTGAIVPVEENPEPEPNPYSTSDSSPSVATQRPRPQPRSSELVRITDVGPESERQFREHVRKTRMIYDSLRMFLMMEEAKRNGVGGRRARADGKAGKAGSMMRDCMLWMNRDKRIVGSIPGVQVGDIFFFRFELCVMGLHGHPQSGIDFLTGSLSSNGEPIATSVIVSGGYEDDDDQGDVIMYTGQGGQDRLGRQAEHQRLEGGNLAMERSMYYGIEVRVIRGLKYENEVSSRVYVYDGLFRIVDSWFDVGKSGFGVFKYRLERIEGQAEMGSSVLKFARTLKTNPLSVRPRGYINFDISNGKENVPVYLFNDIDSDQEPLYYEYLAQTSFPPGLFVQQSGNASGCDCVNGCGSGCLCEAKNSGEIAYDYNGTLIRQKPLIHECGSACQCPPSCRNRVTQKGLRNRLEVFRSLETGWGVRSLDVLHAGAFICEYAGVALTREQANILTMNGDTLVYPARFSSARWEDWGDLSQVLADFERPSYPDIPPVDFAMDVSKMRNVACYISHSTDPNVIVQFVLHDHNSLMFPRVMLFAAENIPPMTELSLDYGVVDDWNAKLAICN
The experiment is described as above.

Results are given in words; binding and its absence hold for the method and conditions named. For part of these data: Binding seen in cells or lysates may run through a third protein. Some entries that bind do so weakly or less than the wild type. Sequences can lack the tags named with a protein.

B1: IDN2 (full-length) fused with GAL4-AD (protein, UniProt Q8VZ79 1-647)
chain: MGSTVILSSDDEDSDISESEMDEYGDKMYLNLKGGKLKVRLSPQAFICPYCPNKKKTSFQYKDLLQHASGVGNSNSDKRSAKEKASHLALVKYLQQDLADSASEAEPSSKRQKNGNPIQDCDHDEKLVYPWKGIVVNIPTTKAQDGRSAGESGSKLRDEYILRGFNPTRVRPLWNYLGHSGTAIVEFNKDWNGLHNGLLFDKAYTVDGHGKKDWLKKDGPKLGLYGWIARADDYNGNNIIGENLRKTGDLKTIAELTEEEARKQELLVQNLRQLVEEKKKDMKEIEELCSVKSEELNQLMEEKEKNQQKHYRELNAIQERTMSHIQKIVDDHEKLKRLLESERKKLEIKCNELAKREVHNGTERMKLSEDLEQNASKNSSLELAAMEQQKADEEVKKLAEDQRRQKEELHEKIIRLERQRDQKQAIELEVEQLKGQLNVMKHMASDGDAEVVKEVDIIFKDLGEKEAQLADLDKFNQTLILRERRTNDELQEAHKELVNIMKEWNTNIGVKRMGELVTKPFVDAMQQKYCQQDVEDRAVEVLQLWEHYLKDSDWHPFKRVKLENEDREVEVIDDRDEKLRELKADLGDGPYNAVTKALLEINEYNPSGRYITTELWNFKADKKATLEEGVTCLLDQWEKAKRKRGMA
For B1, the binding result in experiment [1] is “binds”.

B2: IDN2 fused with C-LUC (protein, UniProt Q8VZ79 1-647)
chain: MGSTVILSSDDEDSDISESEMDEYGDKMYLNLKGGKLKVRLSPQAFICPYCPNKKKTSFQYKDLLQHASGVGNSNSDKRSAKEKASHLALVKYLQQDLADSASEAEPSSKRQKNGNPIQDCDHDEKLVYPWKGIVVNIPTTKAQDGRSAGESGSKLRDEYILRGFNPTRVRPLWNYLGHSGTAIVEFNKDWNGLHNGLLFDKAYTVDGHGKKDWLKKDGPKLGLYGWIARADDYNGNNIIGENLRKTGDLKTIAELTEEEARKQELLVQNLRQLVEEKKKDMKEIEELCSVKSEELNQLMEEKEKNQQKHYRELNAIQERTMSHIQKIVDDHEKLKRLLESERKKLEIKCNELAKREVHNGTERMKLSEDLEQNASKNSSLELAAMEQQKADEEVKKLAEDQRRQKEELHEKIIRLERQRDQKQAIELEVEQLKGQLNVMKHMASDGDAEVVKEVDIIFKDLGEKEAQLADLDKFNQTLILRERRTNDELQEAHKELVNIMKEWNTNIGVKRMGELVTKPFVDAMQQKYCQQDVEDRAVEVLQLWEHYLKDSDWHPFKRVKLENEDREVEVIDDRDEKLRELKADLGDGPYNAVTKALLEINEYNPSGRYITTELWNFKADKKATLEEGVTCLLDQWEKAKRKRGMA
Turning to B2, in experiment [2], the binding result was “binds”.

B3: SWI3D fused with C-LUC (protein, UniProt Q8VY05 1-985)
chain: MEEKRRDSAGTLAFAGSSGDSPASEPMPAPRRRGGGLKRKANALGGSNFFSSAPSKRMLTREKAMLASFSPVHNGPLTRARQAPSIMPSAADGVKSEVLNVAVGADGEKPKEEEERNKAIREWEALEAKIEADFEAIRSRDSNVHVVPNHCGWFSWEKIHPLEERSLPSFFNGKLEGRTSEVYREIRNWIMGKFHSNPNIQIELKDLTELEVGDSEAKQEVMEFLDYWGLINFHPFPPTDTGSTASDHDDLGDKESLLNSLYRFQVDEACPPLVHKPRFTAQATPSGLFPDPMAADELLKQEGPAVEYHCNSCSADCSRKRYHCPKQADFDLCTECFNSGKFSSDMSSSDFILMEPAEAPGVGSGKWTDQETLLLLEALEIFKENWNEIAEHVATKTKAQCMLHFLQMPIEDAFLDQIDYKDPISKDTTDLAVSKDDNSVLKDAPEEAENKKRVDEDETMKEVPEPEDGNEEKVSQESSKPGDASEETNEMEAEQKTPKLETAIEERCKDEADENIALKALTEAFEDVGHSSTPEASFSFADLGNPVMGLAAFLVRLAGSDVATASARASIKSLHSNSGMLLATRHCYILEDPPDNKKDPTKSKSCSADAEGNDDNSHKDDQPEEKSKKAEEVSLNSDDREMPDTDTGKETQDSVSEEKQPGSRTENSTTKLDAVQEKRSSKPVTTDNSEKPVDIICPSQDKCSGKELQEPLKDGNKLSSENKDASQSTVSQSAADASQPEASRDVEMKDTLQSEKDPEDVVKTVGEKVQLAKEEGANDVLSTPDKSVSQQPIGSASAPENGTAGGNPNIEGKKEKDICEGTKDKYNIEKLKRAAISAISAAAVKAKNLAKQEEDQIRQLSGSLIEKQLHKLEAKLSIFNEAESLTMRVREQLERSRQRLYHERAQIIAARLGVPPSMSSKASLPTNRIAANFANVAQRPPMGMAFPRPPMPRPPGFPVPGSFVAATTMTGSSDPSPGSDNVSSV
As for B3, the binding entry in experiment [3] and in experiment [2] was “binds” throughout.

B4: SWI3C fused with C-LUC (protein, UniProt Q9XI07 1-807)
chain: MPASEDRRGKWKRKKRGGLSAARKPKQEEEDMEEEDEENNNNNNEEMDDVENADELQQNGGATPDPGLGIGEVVEDSGSRISDFPAVVKRVVIRPHASVMAVVAAERAGLIGETRGQGSLPALENISFGQLQALSTVPADSLDLERSDGSSSAYVISPPPIMDGEGVVKRFGDLVHVLPMHSDWFAPNTVDRLERQVVPQFFSGKSPNHTPESYMEFRNAIVSKYVENPEKTLTISDCQGLVDGVDIEDFARVFRFLDHWGIINYCATAQSHPGPLRDVSDVREDTNGEVNVPSAALTSIDSLIKFDKPNCRHKGGEVYSSLPSLDGDSPDLDIRIREHLCDSHCNHCSRPLPTVYFQSQKKGDILLCCDCFHHGRFVVGHSCLDFVRVDPMKFYGDQDGDNWTDQETLLLLEAVELYNENWVQIADHVGSKSKAQCILHFLRLPVEDGLLDNVEVSGVTNTENPTNGYDHKGTDSNGDLPGYSEQGSDTEIKLPFVKSPNPVMALVAFLASAVGPRVAASCAHESLSVLSEDDRMKSEGMQGKEASLLDGENQQQDGAHKTSSQNGAEAQTPLPQDKVMAAFRAGLSAAATKAKLFADHEEREIQRLSANIVNHQLKRMELKLKQFAEIETLLMKECEQVEKTRQRFSAERARMLSARFGSPGGISPQTNNLQGMSLSTGGNNINSLMHQQHQQQQASATSQPSIIPGFSNNPQVQAQMHFMARQQQQQQQQQQQQQQAFSFGPRLPLNAIQTNAGSTASPNVMFGNNQLNNPAAAGAASINQPSFSHPMVRSSTGSGSGSGLGLN
Take B4: the binding entry in experiment [3] and in experiment [2] was “binds” in each case.
